Read-outs that look alike come from different tables or passages of the source. These are yes or no findings as the source states them, for the method shown. In cells and extracts the contact can be indirect. Binding calls can cover weak binding; strength is not graded here.
Legend:
Assay in all cases: co-IP
[1] = target: hemagglutinin (HA)-tagged Decorin (human (by the printed Gene ID 1634)) (UniProt P07585)
[2] = target: hemagglutinin (HA)-tagged Decorin (human (by the printed Gene ID 1634)) (UniProt P07585); remark: listed apart in the source
[3] = target: Flag/Strep double-tagged E-cadherin (human (by the printed Gene ID 999)) (UniProt P12830)
[4] = target: Flag/Strep double-tagged E-cadherin (human (by the printed Gene ID 999)) (UniProt P12830); remark: listed apart in the source

Chains of the proteins cited; added tags and fusions are not shown. Lines headed by an entry give the natural chain unless they say otherwise; changes in a name come on top. Residues count along the entry.
UniProt P07585, residues 31-359: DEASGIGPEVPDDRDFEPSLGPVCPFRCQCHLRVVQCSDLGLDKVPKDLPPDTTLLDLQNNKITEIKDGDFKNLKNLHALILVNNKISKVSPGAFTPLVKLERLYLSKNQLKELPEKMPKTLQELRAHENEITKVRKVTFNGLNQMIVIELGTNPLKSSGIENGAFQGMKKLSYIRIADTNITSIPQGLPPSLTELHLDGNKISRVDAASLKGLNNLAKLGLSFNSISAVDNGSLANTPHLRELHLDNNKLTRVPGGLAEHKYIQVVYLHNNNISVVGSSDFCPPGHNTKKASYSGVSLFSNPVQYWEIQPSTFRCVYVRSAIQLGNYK
UniProt P12830: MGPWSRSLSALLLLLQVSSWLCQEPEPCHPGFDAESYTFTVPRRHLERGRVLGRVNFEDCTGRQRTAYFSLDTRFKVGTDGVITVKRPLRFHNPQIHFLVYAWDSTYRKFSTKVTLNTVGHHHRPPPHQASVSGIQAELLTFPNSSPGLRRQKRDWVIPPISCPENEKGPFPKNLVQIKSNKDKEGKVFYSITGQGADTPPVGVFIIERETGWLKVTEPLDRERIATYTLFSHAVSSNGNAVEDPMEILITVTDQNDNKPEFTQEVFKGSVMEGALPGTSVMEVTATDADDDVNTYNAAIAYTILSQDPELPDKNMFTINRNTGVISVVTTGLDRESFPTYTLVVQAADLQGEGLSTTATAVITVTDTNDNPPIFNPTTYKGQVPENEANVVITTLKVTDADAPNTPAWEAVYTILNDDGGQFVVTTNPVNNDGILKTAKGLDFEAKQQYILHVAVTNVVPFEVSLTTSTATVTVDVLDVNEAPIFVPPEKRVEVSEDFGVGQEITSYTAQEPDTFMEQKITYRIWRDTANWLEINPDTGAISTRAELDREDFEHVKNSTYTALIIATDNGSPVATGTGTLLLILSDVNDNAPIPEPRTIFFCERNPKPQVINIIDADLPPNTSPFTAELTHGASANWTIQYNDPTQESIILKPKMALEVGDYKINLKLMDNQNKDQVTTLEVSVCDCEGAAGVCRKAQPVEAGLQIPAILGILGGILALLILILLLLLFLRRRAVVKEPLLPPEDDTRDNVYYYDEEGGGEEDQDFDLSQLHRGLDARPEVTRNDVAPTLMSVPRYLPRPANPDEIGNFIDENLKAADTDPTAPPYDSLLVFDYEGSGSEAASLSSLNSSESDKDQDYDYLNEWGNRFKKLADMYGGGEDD

Substance | binding [1] | binding [2] | binding [3] | binding [4]
Flag/Strep double-tagged E-cadherin (from UniProt P12830) | binds | binds | – | –
hemagglutinin (HA)-tagged Decorin (from UniProt P07585 31-359) | – | – | binds | binds

From article doi:10.1101/2020.07.07.190496
